PubChem BioAssay AID504786, Drosophila RNAi Screening Center | 2011
The screen tested about 21,000 reagents; shown is a random part of those with a known target gene and a result. 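Primary screen; positive scores mean lost reporter signal, so the sign may be inverted from the usual convention.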 Names joined by + are all predicted targets of the reagent. Reagent sequences are not shown.

Aim: 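Positive regulators of HIF-driven reporter output in Drosophila cells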 (primary screen)
Cell system: Drosophila S2 cells with a stable HIF luciferase reporter
Reagent: long dsRNA against Drosophila genes, about 0.2 µg dsRNA per well of a 384-well plate
Time to read-out: three days of knock-down, then 20 h of DFO before reading
Conditions: desferrioxamine (DFO) at 100 µM, an iron chelator that mimics hypoxia, for 20 h
Measured: 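Firefly luciferase driven by the mouse ldh-a hypoxia-response element, measured after 20 h of 100 µM DFO; z-scores per plate, higher means more signal lost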
Scale: z-score: higher = stronger loss of HIF reporter signal

| predicted target | amplicon | z-score, replicate 1 | z-score, replicate 2 | z-score, replicate 3 | z-score, replicate 4 |
| --- | --- | --- | --- | --- | --- |
| CG32409 | DRSC08780 | -0.3 | -0.4 | 0 | -0.1 |
| Parg | DRSC18696 | -0.3 | -0.5 | – | – |
| CG13540 | DRSC04182 | -0.3 | 0.1 | – | – |
| CBP | DRSC17746 | -0.3 | -0.3 | – | – |
| l(3)mbn | DRSC08793 | 0.1 | -0.2 | – | – |
| CG1544 | DRSC15036 | -0.2 | -0.1 | – | – |
| CG13791 (retired record) | DRSC02295 | 0 | -0.2 | – | – |
| EndoB | DRSC07345 | -0.3 | -0.9 | – | – |
| FucTA | DRSC10733 | -0.2 | 0 | – | – |
| CysRS-m | DRSC07129 | -0.2 | -0.4 | – | – |
| aralar1 | DRSC13987 | 0.5 | -0.1 | – | – |
| aralar1 | DRSC16901 | -0.3 | 0 | – | – |
| MED30 | DRSC08516 | -0.1 | -0.1 | – | – |
| NdufV3 | DRSC19423 | -0.2 | 0.2 | – | – |
| Cpr64Ac | DRSC08462 | -0.3 | -0.6 | – | – |
| tpr | DRSC04468 | -0.2 | -0.2 | – | – |
| CG11593 | DRSC08206 | -0.4 | -0.3 | – | – |
| CG32856 | DRSC13124 | 0.4 | 0.4 | – | – |
| CG12974 | DRSC11684 | -0.3 | -0.2 | – | – |
| CG33992 (retired record) + CG43755 | DRSC00012 | -0.5 | 0 | – | – |
| CG6290 | DRSC19979 | -0.3 | -0.6 | – | – |
| SCAP | DRSC04869 | -0.1 | -0.5 | – | – |
| SCAP | DRSC04907 | -0.3 | -0.5 | – | – |
| IntS1 | DRSC04343 | 0.8 | 0.5 | – | – |
| FucTC | DRSC20966 | 0.4 | -0.1 | – | – |
| msi | DRSC17003 | 1.9 | 1.1 | – | – |
| CG32718 | DRSC17538 | -0.3 | -0.2 | – | – |
| CG15576 | DRSC18064 | -0.3 | -0.3 | – | – |
| CG12290 | DRSC14497 | -0.3 | -0.4 | – | – |
| c(3)G | DRSC15245 | -0.1 | 0.2 | – | – |
| Src42A | DRSC04915 | 0 | -0.6 | – | – |
| Nak | DRSC03379 | -0.3 | -0.2 | – | – |
| S2P | DRSC07311 | -0.4 | -0.5 | – | – |
| DIP-iota | DRSC02140 | -0.3 | -0.4 | – | – |
| Tep1 | DRSC03450 | -0.3 | -0.4 | – | – |
| CG30016 | DRSC05242 | -0.1 | 0 | – | – |
| CG6686 | DRSC02979 | 1.5 | 2 | – | – |
| CG31459 | DRSC13380 | -0.2 | 0 | – | – |
| CG12716 | DRSC19493 | 0 | 0.3 | – | – |
| CG6230 | DRSC01989 | -0.3 | -0.5 | – | – |
| mad2 | DRSC10274 | 0.1 | -0.1 | – | – |
| fne | DRSC20332 | 1.2 | 0.9 | – | – |
| Blos3 | DRSC09573 | 0.1 | -0.1 | – | – |
| Cyp28d2 | DRSC03299 | -0.3 | -0.5 | – | – |
| NijC | DRSC14851 | -0.3 | -0.4 | – | – |
| nkt | DRSC10144 | -0.3 | -0.3 | – | – |
| CG10841 | DRSC14271 | -0.4 | 0 | – | – |
| CG33288 | DRSC11484 | -0.6 | -1.1 | – | – |
| cGlr1 | DRSC06270 | -0.1 | 0.1 | – | – |
| Zw | DRSC20303 | -0.1 | -0.4 | – | – |
| FucTD | DRSC08634 | 0 | 0 | – | – |
| CG10508 | DRSC11612 | -0.2 | -0.4 | – | – |
| CG10508 | DRSC11613 | -0.2 | -0.1 | – | – |
| LysB | DRSC08673 | -0.3 | -0.3 | – | – |
| PI31 | DRSC07306 | -0.4 | -0.5 | – | – |
| Topors | DRSC06531 | -0.1 | 0 | – | – |
| ND-B14.5AL | DRSC11795 | -0.2 | -0.4 | – | – |
| Cyp313a1 | DRSC16624 | -0.3 | -0.5 | – | – |
| l(3)72Dn | DRSC10468 | -0.2 | 0.7 | – | – |
| CG13566 | DRSC04203 | -0.5 | -0.8 | – | – |
| Ugt317A1 | DRSC04470 | -0.4 | -0.3 | – | – |
| CG31431 | DRSC14589 | 0.2 | -0.1 | – | – |
| CG3270 | DRSC04988 | -0.2 | -0.3 | – | – |
| CG14650 | DRSC12236 | -0.2 | -0.3 | – | – |
| Pfdn6 | DRSC10915 | -0.3 | -0.7 | – | – |
| ATbp | DRSC20906 | -0.9 | -0.9 | – | – |
| CG5446 | DRSC02862 | -0.4 | 3 | – | – |
| CG9257 | DRSC03173 | -0.3 | -0.9 | – | – |
| CG13564 | DRSC04201 | -0.3 | -0.3 | – | – |
| Inx3 | DRSC14857 | -0.3 | -0.3 | – | – |
| shep | DRSC08748 | -0.7 | -0.9 | – | – |
| shep | DRSC09765 | -0.5 | -0.7 | – | – |
| shep | DRSC09771 | -0.3 | -0.6 | – | – |
| Tim23 | DRSC21240 | -0.4 | -0.3 | – | – |
| CG7083 | DRSC11136 | -0.1 | -0.6 | – | – |
| CG17010 | DRSC02559 | -0.3 | -0.5 | – | – |
| Teh3 | DRSC08537 | -0.2 | -0.3 | – | – |
| Cortactin | DRSC16612 | -0.2 | -0.3 | – | – |
| pain | DRSC04273 | -0.2 | 1.5 | – | – |
| CG2698 | DRSC15447 | 0.3 | -0.2 | – | – |
| CG43740 | DRSC17994 | -0.3 | -0.6 | – | – |
| Whamy | DRSC14574 | -0.4 | -0.6 | – | – |
| Efhc1.2 | DRSC06027 | -0.1 | 0 | – | – |

Laid out differently: entries from further up
{"predicted target":"FucTD","amplicon":"DRSC08634","z-score, replicate 1":0,"z-score, replicate 2":0}
{"predicted target":"CG10508","amplicon":"DRSC11612","z-score, replicate 1":-0.2,"z-score, replicate 2":-0.4}
{"predicted target":"CG10508","amplicon":"DRSC11613","z-score, replicate 1":-0.2,"z-score, replicate 2":-0.1}
{"predicted target":"LysB","amplicon":"DRSC08673","z-score, replicate 1":-0.3,"z-score, replicate 2":-0.3}
{"predicted target":"PI31","amplicon":"DRSC07306","z-score, replicate 1":-0.4,"z-score, replicate 2":-0.5}
{"predicted target":"Topors","amplicon":"DRSC06531","z-score, replicate 1":-0.1,"z-score, replicate 2":0}
{"predicted target":"ND-B14.5AL","amplicon":"DRSC11795","z-score, replicate 1":-0.2,"z-score, replicate 2":-0.4}
